Results deposited as PubChem BioAssay AID1053208 (Peter MacCallum Cancer Centre, 2014)
Here is one part, drawn at random, of about 17,000 reagents. 788 of all reagents (4.7%) were called active. 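Calls rest on z-score classes alone; an extra cut-off of viability at most 70% of control was not applied to them.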 A reagent listed more than once was tested more than once; the source does not tell the runs apart.

- Assay: 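Genes whose silencing cuts survival of bone tumour cells only with doxorubicin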 (primary screen)
- Cell system: mouse osteosarcoma cells, early-passage culture from an engineered mouse model of fibroblastic bone tumour
- Knock-down reagent: siRNA pool against mouse genes, 40 nM
- Timing: about 120 h (48 h before drug, then 72 h with drug)
- Conditions: doxorubicin 100 nM for 72 h, roughly 30-40% inhibitory dose
- Measurement: 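Luminescent ATP signal taken as viability with or without 100 nM doxorubicin for 72 h; mean of two wells set against non-targeting siRNA and turned into robust z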
- Direction: viability z-score with doxorubicin and doxorubicin viability vs non-targeting: higher = more viable cells under doxorubicin; viability z-score without drug: higher = more viable cells with knock-down alone; z-score of drug to no-drug ratio: higher = less drug sensitisation by knock-down
- Call rule: 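a pool counts as active when its viability z-score with doxorubicin is -2 or below and its z-score without drug lies between -2 and 2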

target gene,combined z-score class,viability z-score with doxorubicin,viability z-score without drug,z-score of drug to no-drug ratio,doxorubicin viability vs non-targeting,Outcome
Adgrf1 (adhesion G protein-coupled receptor F1),no change with or without drug,-0.45,0.84,-0.9,0.9,inactive
Ttc28 (tetratricopeptide repeat domain 28),no change with or without drug,0.22,1.18,-0.45,0.96,inactive
AI182371 (expressed sequence AI182371),no change with or without drug,0.45,0.67,0.11,0.98,inactive
Or1r1 (olfactory receptor family 1 subfamily JRmember 1),no change with or without drug,1.24,0.84,0.79,1.05,inactive
Mmab,no change with or without drug,0.45,0.84,0,0.98,inactive
Relt (RELT tumor necrosis factor receptor),no change with or without drug,-0.45,0.51,-0.67,0.9,inactive
"Rab27b (RAB27B, member RAS oncogene family)",no change with or without drug,0.22,1.85,-0.79,0.96,inactive
Or5h22 (olfactory receptor family 5 subfamily H member 22),no change with or without drug,0.22,-0.17,0.45,0.96,inactive
Kirrel2 (kirre like nephrin family adhesion molecule 2),no change with or without drug,-0.45,0.17,-0.45,0.9,inactive
Npy1r (neuropeptide Y receptor Y1),no change with or without drug,-0.34,-0.17,-0.11,0.91,inactive
Ubr1 (ubiquitin protein ligase E3 component n-recognin 1),high cell count without drug only,0.9,2.36,-0.45,1.02,inactive
Sik1 (salt inducible kinase 1),high cell count with doxorubicin only,2.02,1.18,1.35,1.12,inactive
Mmd2 (monocyte to macrophage differentiation-associated 2),low cell count with and without drug,-3.26,-3.2,-1.35,0.65,inactive
Commd3 (COMM domain containing 3),no change with or without drug,-0.45,1.85,-1.46,0.9,inactive
"Naa20 (N(alpha)-acetyltransferase 20, NatB catalytic subunit)",no change with or without drug,-1.46,-1.52,-0.45,0.81,inactive
Zfp326 (zinc finger protein 326),high cell count with and without drug,3.04,2.02,1.69,1.21,inactive
Nap1l4 (nucleosome assembly protein 1-like 4),no change with or without drug,-1.57,-0.84,-1.01,0.8,inactive
Slc7a9,no change with or without drug,1.01,1.18,0.34,1.03,inactive
Tm9sf4 (transmembrane 9 superfamily member 4),no change with or without drug,0.34,-0.17,0.56,0.97,inactive
Slc6a3,no change with or without drug,-0.45,1.18,-1.12,0.9,inactive
Nucb2 (nucleobindin 2),no change with or without drug,-0.22,-0.84,0.45,0.92,inactive
"Cyp2c39 (cytochrome P450, family 2, subfamily c, polypeptide 39)",no change with or without drug,0.9,1.85,-0.22,1.02,inactive
Skint7 (selection and upkeep of intraepithelial T cells 7),no change with or without drug,-0.56,0.84,-1.01,0.89,inactive
Or10a2 (olfactory receptor family 10 subfamily A member 2),no change with or without drug,-0.9,-0.17,-0.79,0.86,inactive
Carns1 (carnosine synthase 1),no change with or without drug,-0.22,0.84,-0.67,0.92,inactive
Tex261 (testis expressed gene 261),no change with or without drug,-0.79,-1.18,0.11,0.87,inactive
"Pigk (phosphatidylinositol glycan anchor biosynthesis, class K)",high cell count with and without drug,2.02,2.53,0.45,1.12,inactive
"H2-Q7 (histocompatibility 2, Q region locus 7)",no change with or without drug,-1.12,-1.18,-0.34,0.84,inactive
Zic3 (zinc finger protein of the cerebellum 3),no change with or without drug,-0.22,-1.18,0.79,0.92,inactive
Ccer1 (coiled-coil glutamate-rich protein 1),no change with or without drug,0.34,1.18,-0.34,0.97,inactive
Twist2 (twist basic helix-loop-helix transcription factor 2),no change with or without drug,-0.45,-1.18,0.45,0.9,inactive
"Pdgfc (platelet-derived growth factor, C polypeptide)",no change with or without drug,-0.67,-0.51,-0.22,0.88,inactive
Arl13b (ADP-ribosylation factor-like 13B),no change with or without drug,0,1.52,-0.9,0.94,inactive
Stx17 (syntaxin 17),no change with or without drug,1.12,0.84,0.67,1.04,inactive
Slc38a2,low cell count with doxorubicin only,-2.92,-0.84,-2.47,0.68,active
Prox1 (prospero homeobox 1),no change with or without drug,0.45,-0.51,1.01,0.98,inactive
C130050O18Rik (RIKEN cDNA C130050O18 gene),no change with or without drug,-1.8,0.17,-1.91,0.78,inactive
Dag1 (dystroglycan 1),no change with or without drug,0.11,0.84,-0.34,0.95,inactive
Wdfy3 (WD repeat and FYVE domain containing 3),no change with or without drug,1.12,0.84,0.67,1.04,inactive
"Tefm (transcription elongation factor, mitochondrial)",no change with or without drug,0.67,0.51,0.45,1,inactive
Shmt1 (serine hydroxymethyltransferase 1 (soluble)),no change with or without drug,0,0,0.11,0.94,inactive
Kin (Kin17 DNA and RNA binding protein),no change with or without drug,-0.9,-0.67,-0.34,0.86,inactive
"H1f4 (H1.4 linker histone, cluster member)",no change with or without drug,0.34,0.34,0.22,0.97,inactive
Gpatch1 (G patch domain containing 1),no change with or without drug,0.9,0.51,0.67,1.02,inactive
Cdip1 (cell death inducing Trp53 target 1),no change with or without drug,0.67,-0.17,0.9,1,inactive
A930002I21Rik (RIKEN cDNA A930002I21 gene),no change with or without drug,1.69,1.18,1.01,1.09,inactive
Coro7 (coronin 7),no change with or without drug,-1.12,0.17,-1.12,0.84,inactive
1700092C17Rik (RIKEN cDNA 1700092C17 gene),no change with or without drug,0.9,0.51,0.67,1.02,inactive
Lce1c (late cornified envelope 1C),no change with or without drug,-0.67,-0.17,-0.45,0.88,inactive
Lce1c (late cornified envelope 1C),no change with or without drug,0.11,-0.17,0.34,0.95,inactive
"Cope (coatomer protein complex, subunit epsilon)",no change with or without drug,-1.35,-0.51,-1.01,0.82,inactive
Kctd6 (potassium channel tetramerisation domain containing 6),no change with or without drug,-1.57,-0.51,-1.24,0.8,inactive
Abi3bp (ABI family member 3 binding protein),no change with or without drug,-0.34,-0.17,-0.11,0.91,inactive
Rimkla (ribosomal modification protein rimK-like family member A),no change with or without drug,0.11,0.51,-0.11,0.95,inactive
"Aldh3b1 (aldehyde dehydrogenase 3 family, member B1)",no change with or without drug,-0.45,-0.17,-0.22,0.9,inactive
"St3gal5 (ST3 beta-galactoside alpha-2,3-sialyltransferase 5)",no change with or without drug,-0.56,1.52,-1.35,0.89,inactive
Cwc25 (CWC25 spliceosome-associated protein),no change with or without drug,-0.22,0.34,-0.34,0.92,inactive
Ube2m (ubiquitin-conjugating enzyme E2M),no change with or without drug,0.34,-0.67,1.01,0.97,inactive
Stag3 (STAG3 cohesin complex component),no change with or without drug,1.24,1.18,0.56,1.05,inactive
Art2b (ADP-ribosyltransferase 2b),no change with or without drug,-0.22,0.34,-0.34,0.92,inactive
Fimp1 (fertilization influencing membrane protein 1),no change with or without drug,0.22,1.69,-0.79,0.96,inactive
Rere (arginine glutamic acid dipeptide (RE) repeats),no change with or without drug,0.11,0.17,0.11,0.95,inactive
Nkain4 (Na+/K+ transporting ATPase interacting 4),no change with or without drug,-0.9,-1.01,-0.11,0.86,inactive

Copied from above, 7 entries:
target gene,combined z-score class,viability z-score with doxorubicin,viability z-score without drug,z-score of drug to no-drug ratio,doxorubicin viability vs non-targeting,Outcome
Slc38a2,low cell count with doxorubicin only,-2.92,-0.84,-2.47,0.68,active
Prox1 (prospero homeobox 1),no change with or without drug,0.45,-0.51,1.01,0.98,inactive
C130050O18Rik (RIKEN cDNA C130050O18 gene),no change with or without drug,-1.8,0.17,-1.91,0.78,inactive
Dag1 (dystroglycan 1),no change with or without drug,0.11,0.84,-0.34,0.95,inactive
Wdfy3 (WD repeat and FYVE domain containing 3),no change with or without drug,1.12,0.84,0.67,1.04,inactive
"Tefm (transcription elongation factor, mitochondrial)",no change with or without drug,0.67,0.51,0.45,1,inactive
Shmt1 (serine hydroxymethyltransferase 1 (soluble)),no change with or without drug,0,0,0.11,0.94,inactive
